# No constants are given. Whether binding was seen depends on the method and setting. Binding seen in cells or lysates may run through a third protein. Some binding calls cover weakened binding; strength is not graded here.
# The chains behind the UniProt entries cited, without tags or fusion partners.
# UniProt Q9NFU0: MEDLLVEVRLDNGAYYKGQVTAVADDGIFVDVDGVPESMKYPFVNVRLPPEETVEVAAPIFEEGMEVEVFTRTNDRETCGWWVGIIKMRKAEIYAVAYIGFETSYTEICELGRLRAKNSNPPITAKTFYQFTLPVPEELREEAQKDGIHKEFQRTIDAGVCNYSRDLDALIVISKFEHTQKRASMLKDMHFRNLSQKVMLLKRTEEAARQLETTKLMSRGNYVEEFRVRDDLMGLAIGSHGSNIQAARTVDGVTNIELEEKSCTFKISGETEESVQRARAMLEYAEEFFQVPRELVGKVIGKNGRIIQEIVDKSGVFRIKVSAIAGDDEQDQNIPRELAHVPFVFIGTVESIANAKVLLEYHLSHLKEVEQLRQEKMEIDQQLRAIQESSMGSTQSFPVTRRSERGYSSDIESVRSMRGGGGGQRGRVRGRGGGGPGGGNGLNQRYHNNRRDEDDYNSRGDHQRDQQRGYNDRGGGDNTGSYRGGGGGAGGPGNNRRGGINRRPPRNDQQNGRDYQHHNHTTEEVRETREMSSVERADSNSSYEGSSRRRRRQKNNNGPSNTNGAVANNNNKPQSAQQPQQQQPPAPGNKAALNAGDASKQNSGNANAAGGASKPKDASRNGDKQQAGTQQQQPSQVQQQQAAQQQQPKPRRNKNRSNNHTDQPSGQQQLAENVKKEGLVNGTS
# Tests used:
# [1] = target: FMRP translation factor (D. melanogaster (endogenous in S2 and Kc cells)) (UniProt Q9NFU0); test: co-IP; cytoplasmic fraction of male S2 cells; IP with mouse anti-FMRP (5B6) magnetic beads, 1 hr at 4°C, washes in 50 mM Tris, 500 mM NaCl, 0.1% NP-40; western blot for CLAMP; IgG-mouse as negative control
# [2] = target: FMRP translation factor (D. melanogaster (endogenous in S2 and Kc cells)) (UniProt Q9NFU0); test: condition: only cytoplasmic fraction of female Kc cells; co-IP; cytoplasmic fraction of female Kc cells; IP with mouse anti-FMRP (5B6) magnetic beads, 1 hr at 4°C, washes in 50 mM Tris, 500 mM NaCl, 0.1% NP-40; western blot for CLAMP; IgG-mouse as negative control
binder,measurement,setting,value
"CLAMP (chromatin-linked adapter for MSL proteins) (protein, UniProt Q9V9N4 1-561) MEDLTKNIIFTNAINGQPATIQYQTADGTILKQPKIEGQKTEQQPTFYYTTNGNGGTVNLAQLATTDDNKTCYIAQPVGGYNYALVNGMPLNQGAALGIATVDAQGRIQIVNQNKPIAANTISNISFKCDVCSDMFPHLALLNAHKRMHTDGEQQQQQQHNAQAGGDSIAVVSAQGLVQAQNIIGNGQMGQIQIVSSDTLEPVQQSVMQQQQHESKASKCINCGSSMLQQSKRKGPKQVRCESCMQAEQTAQQQQQLFVAQDGQMAHPVQIISTTPQAQAQLQQIVAAQTGGTTPKREASSGSGHHPVKKRNSQQMTKCQKCNGSGVVLVGQHSHASHSGVGGSVKQSVTVKTENPSKPFSCNICGGLFSRYSSLWSHKKLHSGEKNYKCSICGLAFAKAVYLKNHARIHTGEKPYKCQTCGMQFSQSPHLKNHERTHSGERPYVCGVCDKGFARHATLWNHRRIHTGEKPYKCEICGSAFSQAAHLKNHAKVHSGEKPYKCEICSAAFADRFALKRHRGIHQKYGQTAPRQTSSDGMIVHKQEIPDMEDEAQQEVIIGGL",binding,[1],binds
same,binding,[2],no binding
